# According to patent US20080047904A1, “Treatment for Hydrostatic Testing Water” (priority 2004, published 2008):
# Experiments:
# [1] = Reversion of phosphonate to orthophosphate by oxidizing biocides; assay type: physicochemical
# Description: The biocides studied consisted of WELLGUARD® 7030, bleach (NaOCl), and activated sodium bromide (NaOCl and NaBr). The WELLGUARD® 7030 and bleach were added directly. Activated sodium bromide was prepared in situ by introducing 20 ppm bromide ion to the stock solution followed by addition of bleach. The phosphonates used in this work consisted of AMP (aminomethylene phosphonic acid), HEDP (hydroxyethylidene diphosphonic acid), and PBTC (phosphonobutanetricarboxylic acid). These materials were commercial samples (Mayoquest 1320, 1500, and 2100, respectively) obtained from Callaway Chemical Co. (Smyrna, Ga.).
# Solutions consisting of 5 ppm scale inhibitor (as active phosphonate) in the presence of 10 ppm oxidant (as Cl2) were prepared as follows. To 900 mL deionized water were added appropriate stock solutions containing phosphonate, alkalinity (NaHCO3), and calcium hardness (CaCl2). The pH was adjusted to 9.1 with 5% aq. NaOH and diluted up to 1 L in a dark amber bottle. A dose of oxidant was added to achieve a residual of 10 ppm. The solutions were then periodically monitored for phosphonate reversion by determining the reversion to orthophosphate (Hach method 490). The oxidant residual was also periodically monitored using the DPD method (Hach method 80). All of this work was performed at room temperature (23° C.). The initial active phosphonate content was confirmed by conversion to orthophosphate via UV/persulfate oxidation followed by a conventional phosphate analysis (Hach method 501). A conversion factor was applied to the phosphate measurement to determine the initial amount of active phosphonate present as follows: AMP, 1.05; HEDP, 1.085; PBTC, 2.85.
# [2] = as above; assay type: physicochemical; remark: listed apart in the source
compound,measurement,setting,value
"[Na+].[O-]Cl [Bleach, NaOCl]","Phosphate, average","[1]; 5 ppm AMP, 10 ppm oxidant (as Cl2), pH 9.1, 23° C., 100-1360 minutes",0.79 ppm
same,Phosphate,"[1]; 5 ppm AMP, 10 ppm oxidant (as Cl2), pH 9.1, 23° C., 20 minutes",0.35 ppm
same,Phosphate,"[1]; 5 ppm AMP, 10 ppm oxidant (as Cl2), pH 9.1, 23° C., 40 minutes",0.7 ppm
same,Phosphate,"[1]; 5 ppm AMP, 10 ppm oxidant (as Cl2), pH 9.1, 23° C., 70 minutes",0.53 ppm
same,Phosphate,"[1]; 5 ppm AMP, 10 ppm oxidant (as Cl2), pH 9.1, 23° C., 100 minutes",0.75 ppm
same,Phosphate,"[1]; 5 ppm AMP, 10 ppm oxidant (as Cl2), pH 9.1, 23° C., 130 minutes",0.8 ppm
same,Phosphate,"[1]; 5 ppm AMP, 10 ppm oxidant (as Cl2), pH 9.1, 23° C., 190 minutes",0.77 ppm
same,Phosphate,"[1]; 5 ppm AMP, 10 ppm oxidant (as Cl2), pH 9.1, 23° C., 220 minutes",0.59 ppm
same,Phosphate,"[1]; 5 ppm AMP, 10 ppm oxidant (as Cl2), pH 9.1, 23° C., 250 minutes",0.64 ppm
same,Phosphate,"[1]; 5 ppm AMP, 10 ppm oxidant (as Cl2), pH 9.1, 23° C., 280 minutes",0.83 ppm
same,Phosphate,"[1]; 5 ppm AMP, 10 ppm oxidant (as Cl2), pH 9.1, 23° C., 310 minutes",0.82 ppm
same,Phosphate,"[1]; 5 ppm AMP, 10 ppm oxidant (as Cl2), pH 9.1, 23° C., 340 minutes",0.8 ppm
same,Phosphate,"[1]; 5 ppm AMP, 10 ppm oxidant (as Cl2), pH 9.1, 23° C., 370 minutes",0.81 ppm
same,Phosphate,"[1]; 5 ppm AMP, 10 ppm oxidant (as Cl2), pH 9.1, 23° C., 400 minutes",0.79 ppm
same,Phosphate,"[1]; 5 ppm AMP, 10 ppm oxidant (as Cl2), pH 9.1, 23° C., 520 minutes",0.97 ppm
same,Phosphate,"[1]; 5 ppm AMP, 10 ppm oxidant (as Cl2), pH 9.1, 23° C., 1360 minutes",0.91 ppm
same,Phosphate,"[1]; 5 ppm HEDP, 10 ppm oxidant (as Cl2), pH 9.1, 23° C., 20 minutes",0 ppm
same,Phosphate,"[1]; 5 ppm HEDP, 10 ppm oxidant (as Cl2), pH 9.1, 23° C., 40 minutes",0 ppm
same,Phosphate,"[1]; 5 ppm HEDP, 10 ppm oxidant (as Cl2), pH 9.1, 23° C., 70 minutes",0.2 ppm
same,Phosphate,"[1]; 5 ppm HEDP, 10 ppm oxidant (as Cl2), pH 9.1, 23° C., 100 minutes",0.25 ppm
same,Phosphate,"[1]; 5 ppm HEDP, 10 ppm oxidant (as Cl2), pH 9.1, 23° C., 130 minutes",0.31 ppm
same,Phosphate,"[1]; 5 ppm HEDP, 10 ppm oxidant (as Cl2), pH 9.1, 23° C., 190 minutes",0.61 ppm
same,Phosphate,"[1]; 5 ppm HEDP, 10 ppm oxidant (as Cl2), pH 9.1, 23° C., 220 minutes",0.65 ppm
same,Phosphate,"[1]; 5 ppm HEDP, 10 ppm oxidant (as Cl2), pH 9.1, 23° C., 250 minutes",0.39 ppm
same,Phosphate,"[1]; 5 ppm HEDP, 10 ppm oxidant (as Cl2), pH 9.1, 23° C., 280 minutes",0.41 ppm
same,Phosphate,"[1]; 5 ppm HEDP, 10 ppm oxidant (as Cl2), pH 9.1, 23° C., 310 minutes",0.58 ppm
same,Phosphate,"[1]; 5 ppm HEDP, 10 ppm oxidant (as Cl2), pH 9.1, 23° C., 340 minutes",0.65 ppm
same,Phosphate,"[1]; 5 ppm HEDP, 10 ppm oxidant (as Cl2), pH 9.1, 23° C., 370 minutes",0.84 ppm
same,Phosphate,"[1]; 5 ppm HEDP, 10 ppm oxidant (as Cl2), pH 9.1, 23° C., 400 minutes",0.65 ppm
same,Phosphate,"[1]; 5 ppm HEDP, 10 ppm oxidant (as Cl2), pH 9.1, 23° C., 460 minutes",0.95 ppm
same,Phosphate,"[1]; 5 ppm HEDP, 10 ppm oxidant (as Cl2), pH 9.1, 23° C., 520 minutes",0.94 ppm
same,"Phosphate, maximum amount of ortho-phosphate that can be liberated","[1]; AMP solution, 0 minutes, UV/persulfate oxidation, Hach method 501",4.22^1 ppm
same,active phosphonate,"[1]; AMP solution, 0 minutes, phosphate analysis X conversion factor 1.05",4.4 ppm
same,averaged amount of phosphonate reversion,"[1]; AMP, averaged",18.7%
same,active phosphonate,"[1]; HEDP solution, 0 minutes, phosphate analysis X conversion factor 1.085",5.2 ppm
same,relative amount of phosphonate reversion,"[1]; HEDP, after 520 minutes",19.6%
same,"Phosphate, average","[2]; 5 ppm PBTC, 10 ppm oxidant (as Cl2), pH 9.1, 23° C., 210-1360 minutes",0.075 ppm
same,Phosphate,"[2]; 5 ppm PBTC, 10 ppm oxidant (as Cl2), pH 9.1, 23° C., 30 minutes",0 ppm
same,Phosphate,"[2]; 5 ppm PBTC, 10 ppm oxidant (as Cl2), pH 9.1, 23° C., 60 minutes",0 ppm
same,Phosphate,"[2]; 5 ppm PBTC, 10 ppm oxidant (as Cl2), pH 9.1, 23° C., 90 minutes",0 ppm
same,Phosphate,"[2]; 5 ppm PBTC, 10 ppm oxidant (as Cl2), pH 9.1, 23° C., 120 minutes",0 ppm
same,Phosphate,"[2]; 5 ppm PBTC, 10 ppm oxidant (as Cl2), pH 9.1, 23° C., 150 minutes",0 ppm
same,Phosphate,"[2]; 5 ppm PBTC, 10 ppm oxidant (as Cl2), pH 9.1, 23° C., 180 minutes",0 ppm
same,Phosphate,"[2]; 5 ppm PBTC, 10 ppm oxidant (as Cl2), pH 9.1, 23° C., 210 minutes",0.12 ppm
same,Phosphate,"[2]; 5 ppm PBTC, 10 ppm oxidant (as Cl2), pH 9.1, 23° C., 270 minutes",0.16 ppm
same,Phosphate,"[2]; 5 ppm PBTC, 10 ppm oxidant (as Cl2), pH 9.1, 23° C., 330 minutes",0.05 ppm
same,Phosphate,"[2]; 5 ppm PBTC, 10 ppm oxidant (as Cl2), pH 9.1, 23° C., 360 minutes",0.02 ppm
same,Phosphate,"[2]; 5 ppm PBTC, 10 ppm oxidant (as Cl2), pH 9.1, 23° C., 390 minutes (first 390 line)",0.02 ppm
same,Phosphate,"[2]; 5 ppm PBTC, 10 ppm oxidant (as Cl2), pH 9.1, 23° C., 390 minutes (second 390 line)",9.5 ppm
same,Phosphate,"[2]; 5 ppm PBTC, 10 ppm oxidant (as Cl2), pH 9.1, 23° C., 1360 minutes",0.08 ppm
same,active phosphonate,"[2]; PBTC solution, 0 minutes, phosphate analysis X conversion factor 2.85",4.1 ppm
same,average amount of phosphonate reversion,"[2]; PBTC, after 3½ hours contact and beyond",5.2%
